{"source": "patent US9358239B2", "about": "“NiSOD-like compound and its derivatives for suppressing abnormal protein aggregation, recovering cell viability, increasing mature neuron number and neurite outgrowth length and protecting dopaminergic cells by reducing oxidative stress or reactive oxygen species in brain tissues” (National Taiwan Normal University, priority 2012, dated 2016)", "test_system": "HEK-293 cells", "experiment": "MTT viability assay, cytotoxicity against 293 cells", "settings": "read-out: IC50 (MTT viability), treatment for one day, interpolation method", "data": [{"smiles": "O=C(CCCCCCC(=O)Nc1ccccc1)NO", "note": "[SAHA, suberoylanilide hydroxamic acid, reference compound]", "values": [{"measurement": "IC50", "value": 377, "unit": "µM"}]}]}
